Results taken from patent US11406723B2, “Radiotherapeutic and companion imaging agents to target MC1R” (H. LEE MOFFITT CANCER CENTER AND RESEARCH INSTITUTE, INC., priority 2015, dated 2022).
Values joined by “and” are separate entries in the source; they are usually repeats but may differ in a detail not shown here. Equal entries are not always repeated. For part of these data: Not every detail of the peptide structures is certain; ends, links or a residue may be inferred. For part of these data: At least one compound was matched to its structure with a doubt left. Where a SMILES comes first, the peptide text is derived from it. Side-chain parts run from the residue outwards. [ ]: non-standard residue; d: D form. The star is where a group is joined. DOTA = O=C(O)CN1CCN(CC(=O)O)CCN(CC(=O)*)CCN(CC(=O)O)CC1; Butanoyl(4-Ph) = O=C(CCCc1ccccc1)*; Ahx = NCCCCCC(=O)O

By UniProt entry, the sequences of proteins in these tests, tags left out. Where a name states a change or a piece, a line headed by the entry shows the natural chain unless it says otherwise.
UniProt Q01726: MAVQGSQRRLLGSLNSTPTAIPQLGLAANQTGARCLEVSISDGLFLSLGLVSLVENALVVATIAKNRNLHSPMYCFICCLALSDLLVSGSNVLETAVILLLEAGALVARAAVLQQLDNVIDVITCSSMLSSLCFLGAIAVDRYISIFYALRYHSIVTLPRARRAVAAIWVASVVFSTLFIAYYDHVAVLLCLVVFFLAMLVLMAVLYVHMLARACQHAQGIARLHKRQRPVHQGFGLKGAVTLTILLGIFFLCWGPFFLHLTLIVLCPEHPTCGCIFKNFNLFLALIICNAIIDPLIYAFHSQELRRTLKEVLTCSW

Key:
MC1R (Hek293/MC1R cells) [1] = molecular target: T1, MC1R (Hek293/MC1R cells) (Homo sapiens, UniProt Q01726); assay: Time-resolved fluorescence (TRF) competition binding assay; conditions: competitive binding, read-out: binding affinity to MC1R (Ki)
T1 construct: expressed in transfected cells; host or cells: Hek293
Description: FIG. 2 is a graph from representative competitive binding assays of the ^139La- and ^69Ga-DOTA-MC1RL peptides.
(§1) Time-resolved fluorescence (TRF) competition binding assays were performed to determine binding affinities of these DOTA conjugates (FIG. 2). The TRF method takes advantage of the long fluorescence lifetime of the lanthanide Europium and can detect less than one attomole in a multiwell plate sample. Hek293/MC1R cells (Hek293 cells engineered to over-express MC1R) were used for the binding assays. Saturation TRF binding assays were performed using versions of the compounds with chelated europium to determine specific and non-specific binding (FIG. 17-20).

MC1R (Hek293/MC1R cells) [2] = molecular target: T1, MC1R (Hek293/MC1R cells); assay: Saturation TRF binding assay with europium-chelated compounds; conditions: Eu chelate; 20x MC1RL-DOTA used for blocking; two repeats; read-out: Kd, specific saturation binding
Description: The binding sequence is 1-Phenylbutyric acid-His(D)Phe-Arg-Trp-Gly-Lys(Ahx-DOTA)-CONH2. Eu is chelated into the conjugated DOTA for lanthanide-based binding assays but ^225Ac, ^68Ga, or ^111In can also be chelated. […] 20×MC1Rl-DOTA was used for blocking. […] Data is the result of two repeats.
The binding sequence is 1-Phenylbutyric acid-His(D)Phe-Arg-Trp-Gly-Lys(DOTA)-CONH2. Eu is chelated into the conjugated DOTA for lanthanide-based binding assays but ^225AC, ^68Ga, or ^111In can also be chelated. […] 20×MC1Rl-DOTA was used for blocking. […] Data is the result of two repeats.
The binding sequence is 1-Phenylbutyric acid-His(D)Phe-Arg-Trp-Gly-Lys(D-di-Glu-DOTA)-CONH2. Eu is chelated into the conjugated DOTA for lanthanide-based binding assays but ^225Ac, ^68Ga, or ^111In can also be chelated. […] 20×MC1Rl-DOTA was used for blocking. […] Data is the result of two repeats.
as §1, with “Saturation TRF binding assays were performed using versions of the compounds with chelated europium to determine specific and non-specific binding (FIG. 17-20).” left out

A375/MC1R tumors = assay: Efficacy in SCID mice bearing A375/MC1R tumors; type: in vivo; conditions: single intravenous administration
Description: Mice were observed daily for health and twice per week weighed and tumor volumes measured by caliper. When the tumors reach 2000 mm^3 (experimental endpoint), animals were euthanized. Euthanizations prior to 2000 mm^3 were due to clinical endpoints, i.e. predominantly due to tumor ulceration.
1.9-3.3 μCi of MC1RL-DOTA-^225Ac, 1.8-2.7 μCi of scrambled peptide-DOTA-^225Ac, an excess of the cold agent (MC1RL-DOTA-^139La) and saline were injected to the SCID mice bearing A375/MC1R tumors injection (n=10 per group, volume of the tumors: 57-266 mm3). Mice were observed daily for health and twice per week weighed and tumor volumes measured by caliper. When the tumors reach 2000 mm^3 (experimental endpoint), animals were euthanized. Euthanizations prior to 2000 mm^3 were due to clinical endpoints, i.e. predominantly due to tumor ulceration.
These 2 mice are currently tumor free 150 days post injection. The other 7 treated mice were euthanized at an average of 86 days due to tumor ulceration without progression. While the median time-to-endpoint (tumor >2000 mm^3) of control mice treated with saline, MC1RL-DOTA-^139La (cold surrogate) and scrambled peptide-DOTA-^225Ac were 22, 24 and 32 days respectively after injection.

N=C(N)NCCC[C@H](NC(=O)[C@@H](Cc1ccccc1)NC(=O)[C@H](Cc1c[nH]cn1)NC(=O)CCCc1ccccc1)C(=O)N[C@@H](Cc1c[nH]c2ccccc12)C(=O)NCC(=O)N[C@@H](CCCCNC(=O)CCCCCNC(=O)CN1CCN(CC(=O)O)CCN(CC(=O)O)CCN(CC(=O)O)CC1)C(N)=O (139La complex, metal not drawn) [^139La-DOTA-MC1RL] ({Butanoyl(4-Ph)}-H[dF]RWGK([Ahx-DOTA])-NH2)
Ki (MC1R (Hek293/MC1R cells) [1]): 0.2 nM and 0.23 nM

N=C(N)NCCC[C@H](NC(=O)[C@@H](Cc1ccccc1)NC(=O)[C@H](Cc1c[nH]cn1)NC(=O)CCCc1ccccc1)C(=O)N[C@@H](Cc1c[nH]c2ccccc12)C(=O)NCC(=O)N[C@@H](CCCCNC(=O)[C@@H](CCC(=O)O)NC(=O)[C@@H](CCC(=O)O)NC(=O)CN1CCN(CC(=O)O)CCN(CC(=O)O)CCN(CC(=O)O)CC1)C(N)=O [1-Phenylbutyric acid-His(D)Phe-Arg-Trp-Gly-Lys(D-di-Glu-DOTA)-CONH2] ({Butanoyl(4-Ph)}-H[dF]RWGK([dE-dE-DOTA])-NH2; N-terminus and C-terminus assumed)
Kd (MC1R (Hek293/MC1R cells) [2]): 0.19 nM

N=C(N)NCCC[C@H](NC(=O)[C@@H](Cc1ccccc1)NC(=O)[C@H](Cc1c[nH]cn1)NC(=O)CCCc1ccccc1)C(=O)N[C@@H](Cc1c[nH]c2ccccc12)C(=O)NCC(=O)N[C@@H](CCCCNC(=O)CCCCCNC(=O)CN1CCN(CC(=O)O)CCN(CC(=O)O)CCN(CC(=O)O)CC1)C(N)=O [^67/69Ga-DOTA-MC1RL] ({Butanoyl(4-Ph)}-H[dF]RWGK([Ahx-DOTA])-NH2)
Ki (MC1R (Hek293/MC1R cells) [1]): 0.34 nM

N=C(N)NCCC[C@H](NC(=O)[C@@H](Cc1ccccc1)NC(=O)[C@H](Cc1c[nH]cn1)NC(=O)CCCc1ccccc1)C(=O)N[C@@H](Cc1c[nH]c2ccccc12)C(=O)NCC(=O)N[C@@H](CCCCNC(=O)CCCCCNC(=O)CN1CCN(CC(=O)O)CCN(CC(=O)O)CCN(CC(=O)O)CC1)C(N)=O [^225Ac-DOTA-MC1RL, metal not drawn] ({Butanoyl(4-Ph)}-H[dF]RWGK([Ahx-DOTA])-NH2)
average time to euthanasia due to tumor ulceration without progression (other 7 treated mice) (A375/MC1R tumors): 86 days | time tumor free post injection (the 2 mice with complete loss of tumor) (A375/MC1R tumors): 150 days | complete loss of tumor, share of treated mice (A375/MC1R tumors; 1.9-3.3 μCi, 2 of 9 mice): 22%
